# Assay results: the supplement of paper PMC10338343
# ± gives the standard deviation. The list shows a part of the results. The uncertainty is large for many entries.
# Tested on: EfPiwi piRISC loaded with L1MC piRNA (26 nt)
# Assay: pre-steady-state target cleavage rate (min^-1); guide: L1MC piRNA 5'p-UAACUAAAUACUAUGCAAGCUGUAGG; MIWI and MILI are mouse PIWI proteins and EfPiwi is from a freshwater sponge; tags in brackets are library labels; higher = faster piRNA-guided slicing of the target
# Conditions: auxiliary factor: 500 nM Ephydatia muelleri Gtsf1
# Method in brief: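 In HEPES–potassium acetate buffer at 33 °C, […] transcribed, DNA-blocked target RNA library was mixed with 1 nM active affinity-purified piRISC carrying one synthetic guide, with or without 500 nM GTSF1 partner protein, for 0–8 or 0–960 min. Uncleaved targets were sequenced and normalised to depth and to weakly complementary targets; three trials were pooled and k3 was capped at 0.0001 min^-1. The pre-steady-state cleavage rate followed from a burst-and-steady-state fit.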
row,Sequence,pre-steady-state target cleavage rate
1,UCCUCCUACAGCUUGCUAUGUAUUUUCAAA,0.000897 ± 0.0078
2,UCCUGGAUCAGCUUGCAAAGUAUUUUCAAA,0.00083 ± 0.0039
3,UCCUGGAACAGCUUGCAUUCAAUUUAGUUA,0.000348 ± 0.0077
4,UCCUGGAUGUCGAAGCCAUAGUAUUUAGUUA,0.00118 ± 0.0054
5,UCCUCCAACAGCUUGCAUAGUAUUUAGUUA,0.113 ± 0.032
6,UCCUGGAUGAGCUUGCAAUGUAUUUAGUAA,0.000323 ± 0.013
7,UCCUGGAUGUCGAUGCAUAGUUUUUUGUUA,0.000173 ± 0.03
8,UCCUGGAUGUCGAAGAUAGUAUUUAGUUA,0.00025 ± 0.015
9,UCCUGGAUGUCCUUGCAUAGUUUAUAGUUA,0.000967 ± 0.0084
10,UCCUGGAUCAGCUUGCAUAGUAUAUACAAA,0.000755 ± 0.0041
11,UCCUGGAUGUCCUUGGAUAGUAUAUAGUUA,0.000834 ± 0.01
12,UCCUGGAUGUCGAAGCAUAGUUAUUAGUUA,0.000805 ± 0.0086
13,UCCUGGAUCAGCUUGCAAUGUAUUUAGAAA,0.000457 ± 0.0056
14,UCCUCCUAGUCCUUGCAUAGUAUUUUCAAA,0.00265 ± 0.0046
15,UCCUGGUACAGCUUGGUAAGUAUUUAGUAA,0.000243 ± 0.024
16,UCCUGGAUCUCCUUGCAUAGUAUUUACAAA,0.00164 ± 0.0047
17,UCCUCCUUGUGCUUGCAUAGUAUUUUCAAA,0.00243 ± 0.0033

row,Sequence,pre-steady-state target cleavage rate
1,UCCUGGAUGUCCUUGCAUAGUAUUAUGUUA,0.000271 ± 0.012
2,UCCUGGAACAGCUUGCAUACGUAUUUAGUUA,0.0016 ± 0.003
3,UCCUGGAUCAGCUUGCAUAGUAUUAACAAA,0.00119 ± 0.0037
4,UCCUGGAUGUCGUUGCAUUCUAUUUAGUUA,0.000365 ± 0.0082
5,UCCUGCUACAGGAUGCAUAGUAUUUAGAAA,0.00248 ± 0.0014
6,UCCUGGUACAGCUAGCAUAGUAUUUUCAAA,0.00108 ± 0.0048
7,UCCUGGAUGUCGAUGCCAUAGUAUUUAGUUA,0.00138 ± 0.0074
8,UCCUGGAUGUGCUUGACAUAGUAUUUAGUUA,0.0797 ± 0.03
9,UCCUCCUACACCUUGCAUAGUAUUUUCAAA,0.00277 ± 0.003
10,UCCUGGUAGAGCUUGCAUAGUAUUUACAAA,0.00173 ± 0.0025
11,UCCUGGAACAGCUUGCAUAGUAUAUAGAAA,0.00685 ± 0.0044
12,UCCUGGAUGUCGUUGCAAUGUAUUUAGUUA,0.000309 ± 0.011
13,UCCUGGAUGUCGAACCUAGUAUUUAGUUA,0.000258 ± 0.013
14,UCCUCCUACACGAUGCAUAGUAUUUAGAAA,0.00369 ± 0.0021
15,UCCUGGAUGUCCUUGCAUUGAAUUUAGUUA,0.000734 ± 0.0072
16,UCCUGGAUGUGCUUGCAUAGAUAAAUCAAA [g11:g20:cont:t1A],0.000298 ± 0.014
17,UCCUGGAUGUCGUUGCAUAGUAUUUUGUAA,0.000211 ± 0.026

# Quoted at random: three records from the list
row,Sequence,pre-steady-state target cleavage rate
15,UCCUGGAUGUCCUUGCAUUGAAUUUAGUUA,0.000734 ± 0.0072
8,UCCUGGAUGUGCUUGACAUAGUAUUUAGUUA,0.0797 ± 0.03
9,UCCUCCUACACCUUGCAUAGUAUUUUCAAA,0.00277 ± 0.003
